The text below walks through data of PubChem BioAssay AID493014 (National Center for Advancing Translational Sciences (NCATS), 2011).

The list shows a part of the results. Shown are side measurements of this screen, not its main read-out; they come without a call. Compounds called inactive in the main read-out are mostly missing here. Words in brackets tell the shape of the fitted curve; partial curves, single points and poor fits give uncertain potencies.

The nature of the experiment: qHTS Assay to Find Inhibitors of Chronic Active B-Cell Receptor Signaling. Conditions: ABC-DLBCL IkBa-CBG/CBR reporter, luminescence ratio (green luciferase fused to IkBa over red control in TMD8 lymphoma cells), 4 h. In a few lines:
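Compounds up to 46 uM were incubated four hours with TMD8 cells whose green CBG68 luciferase is fused to IkappaBalpha; red CBR luminescence normalised the signal, and concentration-effect curves were fitted to fusion, red and ratio data.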
In general terms: In qHTS, concentration-response curves come from the screen itself.

[1] abbreviates: measured here: CBR red luminescence, cell number.
Setting [2] is: measured here: IkBa-CBG green luminescence.

Turning to `CCCCN(C)C/C(O)=C(\C#N)c1nc(-c2ccccc2)cs1`, the AC50 under setting [1] is 29.1 µM [falling, single point].

For the compound `O=C(Nc1cccc(Br)c1)c1cc(S(=O)(=O)N2CCOCC2)cs1`, the concentration at half-maximal activity (AC50) under setting [1] was 35.5 µM [falling, single point].

`Cc1cc(C)nc(/N=C(\NC(=O)C(C)(C)C)Nc2ccccc2)n1`: under setting [1], the AC50 was 1.26 µM [rising, full curve, poor fit].

As to `Cc1ccc(-c2cc(C(=O)N/N=C/c3c(C)nn(-c4ccccc4)c3C)n[nH]2)s1`, the AC50 under setting [1] was 7.31 µM [rising, partial curve, poor fit] and the AC50 under setting [2] is 2.59 µM [falling, partial curve, poor fit].

For `COc1ccc(C(=O)COC(=O)c2ccn(C)n2)cc1`, the AC50 under setting [1] was 7.08 µM [rising, partial curve, poor fit].

In the case of `Cn1c(=O)c2c(ncn2CC(=O)N2CCN(C(=O)c3ccco3)CC2)n(C)c1=O`, the AC50 under setting [1] is 6.31 µM [rising, single point].

In the case of `Oc1ccc(/C=C/c2ccc3ccccc3n2)cc1`, the concentration at half-maximal activity (AC50) under setting [1] was 11.2 µM [falling, partial curve, poor fit].

Turning to `Cc1cccc2sc(N(CCCN(C)C)C(=O)c3ccc(Cl)s3)nc12`, the AC50 under setting [1] is 14.1 µM [falling, single point].

On to `CCOC(=O)Cn1c(=O)oc2cc(S(=O)(=O)NC3CCCc4ccccc43)ccc21` (configuration not stated), for which the concentration at half-maximal activity (AC50) under setting [1] was 29.1 µM [falling, single point].

Take `Fc1ccc(C2c3cccn3CCN2C(=S)Nc2cccc(Br)c2)cc1` (configuration not stated): the AC50 runs as follows: under setting [1], 11.2 µM [falling, partial curve]; under setting [2], 14.1 µM [rising, partial curve, poor fit].

With `CCOCCCNC(=S)N1C2CCC1CC(NC(=O)Nc1ccc(C(=O)OCC)cc1)C2` (configuration not stated), the AC50 under setting [1] is 0.708 µM [rising, full curve, poor fit].

As for `S=C(c1ccc(-c2ccc(Cl)cc2Cl)o1)N1CCCCC1`, the AC50 under setting [1] was 10.3 µM [rising, partial curve, poor fit].

In the case of `CC(=O)NNC(=S)NC(=O)c1ccc(C)cc1`, under setting [1], the AC50 is 11.2 µM [falling, partial curve].

On to `CCN1C(=O)/C(=C/N(C(C)=O)c2ccccc2)N(c2ccccc2)C1=S`, for which the AC50 under setting [1] was 2.31 µM [rising, single point].

Take `O=C(O)c1cc(N/N=C/c2ccc(-c3ccccc3)cc2)ccc1Cl`: under setting [1], the AC50 was 1.12 µM [falling, full curve].

For the compound `Cc1ccc(NC(=O)c2cc(S(=O)(=O)NCCc3ccccc3)ccc2F)cc1Cl`, the AC50 under setting [1] was 23.1 µM [falling, single point] and the AC50 under setting [2] is 13 µM [rising, partial curve, poor fit].

Take `COc1ccccc1/C=C1\SC(=S)N(CCC(=O)NCCCN2CCOCC2)C1=O`: the AC50 under setting [1] is 8.91 µM [falling, partial curve, poor fit].

Regarding `CCN(CC(=O)Nc1ccc2c(c1)OCCO2)C(=O)c1ccc(S(=O)(=O)N(C)C)cc1`, the half-maximal activity concentration (AC50) under setting [1] is 1.84 µM [falling, full curve, poor fit].

For `CCCCNc1ncnc2c1nnn2C`, the AC50 under setting [1] is 15.8 µM [falling, single point].

Consider `Cc1cc(C(=O)NCc2ccccc2Br)no1`, for which, under setting [1], the AC50 is 7.31 µM [falling, partial curve, poor fit].

For the compound `CCCCn1nnc(NC(=S)NC(=O)c2ccc(OCC)c([N+](=O)[O-])c2)n1`, the AC50 under setting [1] was 2 µM [falling, partial curve, poor fit].

Regarding `COc1ccc(C2CC(c3ccc([N+](=O)[O-])cc3)=NN2C(C)=O)cc1` (configuration not stated), the AC50 under setting [1] was 15.8 µM [falling, partial curve, poor fit].

For `O=C1CC(c2ccccc2Oc2cccc(Cl)c2)C(n2cncn2)C(=O)C1C1NCCc2ccccc21` (configuration not stated), the AC50 runs as follows: under setting [1], 35.5 µM [falling, single point]; under setting [2], 20 µM [rising, partial curve, poor fit].

Turning to `CCOCCCNC(=O)c1cc(-c2ccc(Br)s2)nc2ccccc12`, under setting [1], the AC50 was 1 µM [rising, full curve].

For `CCCNC(=O)C(=O)N/N=C/c1cccs1`, the AC50 under setting [1] was 23.1 µM [falling, single point].

`COC(=O)c1ccc(Cn2cnc3ccccc3c2=O)cc1`: the AC50 under setting [1] is 18.4 µM [falling, partial curve].

Turning to `COc1cccc2sc(N(Cc3cccnc3)C(=O)Cc3ccccc3)nc12`, the AC50 under setting [1] was 35.5 µM [falling, single point].

`COc1cc(-c2cc(=O)c3c(O)cc(O)cc3o2)ccc1O`: the AC50 under setting [1] is 11.2 µM [falling, single point].

`COc1ccc(C(=O)N=c2nc3ccccn3s2)cc1`: the concentration at half-maximal activity (AC50) under setting [1] was 1.58 µM [falling, full curve].

Turning to `Cc1nc2ccccc2c(=O)n1-c1ccc(F)c(NS(=O)(=O)c2ccccc2F)c1`, the concentration at half-maximal activity (AC50) under setting [1] was 29.1 µM [rising, single point].

Consider `N/C(=N\OC(=O)COc1ccc(Cl)cc1Cl)c1cccnc1`, for which the AC50 under setting [1] is 2.91 µM [rising, partial curve, poor fit].

With `COc1cc2nc(/C=C/c3cc(OC)c(OC)c(OC)c3)sc2cc1SC`, the AC50 under setting [1] is 29.1 µM [falling, single point].

With `CC(OC(=O)c1snc(C(=O)NC2CCCCC2)c1N)C(=O)NC1CCCCC1` (configuration not stated), the AC50 under setting [1] was 0.291 µM [falling, full curve].

Consider `COC(=O)c1cccc(NC(=O)CCSc2ccc(Cl)cc2)c1C`, for which the half-maximal activity concentration (AC50) under setting [1] was 35.5 µM [rising, single point].

As to `Cc1ccc(/C=N/n2c(-c3ccco3)n[nH]c2=S)cc1`, the AC50 under setting [1] was 35.5 µM [falling, single point].

Turning to `COc1ccccc1-n1c(CNC(=O)c2ccco2)nnc1SCC(=O)Nc1nccs1`, the half-maximal activity concentration (AC50) under setting [1] is 0.517 µM [falling, full curve, poor fit].

Consider `CCCn1c(SCc2ccc(C(=O)OC)o2)nc2ccccc2c1=O`, for which the AC50 under setting [1] is 1.58 µM [rising, partial curve, poor fit].

Regarding `C=CCN1C(=O)C(Cc2ccc(C)cc2)S/C1=N/N=C/c1ccco1` (configuration not stated), the AC50 under setting [1] is 23.1 µM [rising, partial curve, poor fit].

As for `Cc1c(N=C/C=C2\N(C)c3ccccc3C2(C)C)c(=O)n(-c2ccccc2)n1C`, the AC50 under setting [1] is 7.94 µM [rising, partial curve, poor fit].

For the compound `CC1(C)N=C(SCC(=O)Nc2ccccc2)C(c2ccc(Cl)cc2)=N1`, the AC50 under setting [1] was 3.26 µM [falling, single point].

Take `O=c1[nH]nc(Cc2ccc(-c3ccccc3Cl)o2)c2ccccc12`: the AC50 under setting [1] is 13 µM [falling, partial curve].

In the case of `Cc1cccc2sc(NC(=O)CCn3cccc3)nc12`, the AC50 under setting [1] was 7.94 µM [falling, partial curve, poor fit].

In the case of `CCOC(=O)N1CCN(c2cc(N3CCN(CC)CC3)c(F)cc2[N+](=O)[O-])CC1C` (configuration not stated), the AC50 under setting [1] was 35.5 µM [falling, partial curve, poor fit].

Take `Cc1ccc(S(=O)(=O)/N=C(/NC(=S)Nc2ccccc2)c2ccccc2)cc1`: the AC50 under setting [1] was 16.4 µM [falling, single point].

On to `Cn1cc(C(CC(=O)O)C(=O)O)c2ccccc21` (configuration not stated), for which, under setting [1], the AC50 was 2.31 µM [falling, partial curve, poor fit].

Regarding `N#C/C(C(=O)Nc1ccc(Cl)cc1)=C(/S)Nc1ccccc1`, the AC50 is, setting by setting: under setting [1], 2 µM [rising, full curve]; under setting [2], 11.2 µM [falling, single point].

On to `COc1ccc(C(=O)Oc2c(CN3CCOCC3)cc(Cl)c3cccnc23)cc1`, for which the AC50 under setting [2] is 18.4 µM [falling, single point].

Consider `Cn1c(N)c(C(=O)COC(=O)CC(NC(N)=O)c2ccc(Cl)cc2)c(=O)n(C)c1=O` (configuration not stated), for which, under setting [1], the AC50 is 0.0517 µM [rising, partial curve, poor fit].

For `O=S(=O)(CCc1nc2ccccc2s1)c1ccc2ccccc2c1`, the AC50 under setting [1] was 5.8 µM [rising, full curve, poor fit].

As for `O=C(O)CCCN1C(=O)/C(=C\C(Cl)=C\c2ccccc2)SC1=S`, under setting [1], the AC50 is 0.631 µM [falling, full curve].

Regarding `CCOC(=O)Cn1nnnc1CN(CCc1ccccc1)Cc1cc2cc(CC)ccc2[nH]c1=O`, the AC50 under setting [1] is 20.6 µM [falling, single point].

Turning to `Cc1ccc(-c2cc(C(F)(F)F)c(C#N)c(=O)[nH]2)cc1`, the AC50 under setting [1] is 16.4 µM [rising, partial curve, poor fit].

As for `CSc1nnc(NC(=O)c2nc(S(=O)(=O)Cc3ccccc3F)ncc2Cl)s1`, under setting [1], the AC50 was 22.4 µM [falling, single point].

As for `O=S(=O)(NCCOCCNS(=O)(=O)c1ccccc1)c1ccccc1`, the concentration at half-maximal activity (AC50) under setting [1] was 15.8 µM [rising, single point].

With `CCc1nc2nc(C)c(NS(=O)(=O)c3cccs3)c(=O)n2[nH]1`, the AC50 under setting [1] is 6.31 µM [falling, single point].

Consider `COc1cccc2cc(C(C)N(CCCN3CCOCC3)C(=S)Nc3c(C)cccc3C)oc12` (configuration not stated), for which the AC50 under setting [1] was 17.8 µM [rising, single point].

For `S=c1[nH]cc(-c2ccccc2)[nH]1`, under setting [1], the AC50 is 8.91 µM [rising, partial curve, poor fit].

On to `COc1ccc(NC(=O)c2cnc3n(c2=O)CCS3)cc1OC`, for which the AC50 under setting [1] is 1.46 µM [falling, partial curve, poor fit].

Take `O=C(N/N=C/c1ccco1)c1cc2ccccc2o1`: the AC50 under setting [1] is 10 µM [falling, partial curve].

As for `O=C(NCCCCNC(=O)c1ccccc1F)c1ccccc1F`, the AC50 under setting [1] is 35.5 µM [falling, single point].

Regarding `COC(=O)C1=C(N)Oc2cc(N(C)C)ccc2C1c1ccccc1OC` (configuration not stated), the AC50 under setting [1] was 15.8 µM [rising, single point].

Consider `O=C(O)c1ccccc1NC1CCCCC1NS(=O)(=O)c1ccccc1` (configuration not stated), for which the AC50 under setting [1] is 1.12 µM [falling, full curve, poor fit].

The term AC50 denotes the concentration giving half of the maximal activity seen.
